Experimental data: PMC9283627, “Auxotrophic and prototrophic conditional genetic networks reveal the rewiring of transcription factors in Escherichia coli”
These are yes or no findings as the source states them, for the method shown. For some assays here: In cells and extracts the contact can be indirect. Some entries that bind do so weakly or less than the wild type. Tags and fused reporters may be left off the sequences shown.

T1: YneJ, bacterial two-hybrid fusion (E. coli) (UniProt P77309)
T1 sequence: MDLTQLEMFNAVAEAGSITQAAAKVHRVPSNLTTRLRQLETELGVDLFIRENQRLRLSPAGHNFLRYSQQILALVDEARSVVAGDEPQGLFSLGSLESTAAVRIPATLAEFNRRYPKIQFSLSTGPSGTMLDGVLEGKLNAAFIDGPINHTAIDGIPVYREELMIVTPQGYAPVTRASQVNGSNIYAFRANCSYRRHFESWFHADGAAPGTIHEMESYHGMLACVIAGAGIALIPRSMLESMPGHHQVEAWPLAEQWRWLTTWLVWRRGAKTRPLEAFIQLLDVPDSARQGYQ

T2: YneJ with a chromosomal C-terminal FLAG3 tag (E. coli) (UniProt P77309)
T2 sequence: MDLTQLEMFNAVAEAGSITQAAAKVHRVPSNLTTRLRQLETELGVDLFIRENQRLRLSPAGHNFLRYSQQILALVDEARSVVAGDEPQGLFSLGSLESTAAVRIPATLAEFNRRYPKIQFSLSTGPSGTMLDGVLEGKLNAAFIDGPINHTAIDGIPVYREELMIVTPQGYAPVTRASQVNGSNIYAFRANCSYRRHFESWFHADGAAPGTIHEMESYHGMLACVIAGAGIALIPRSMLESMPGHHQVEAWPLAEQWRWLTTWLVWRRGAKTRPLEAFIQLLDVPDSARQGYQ


How the values were obtained:
[1] = target: T1, YneJ, bacterial two-hybrid fusion (E. coli); assay: two-hybrid; bacterial two-hybrid (CyaA reconstitution; pUT18C, pKT25) in E. coli BTH101, M63 maltose agar with IPTG and X-gal, 32 °C, 16-24 h
[2] = target: T2, YneJ with a chromosomal C-terminal FLAG3 tag (E. coli); assay: co-IP; chromosomal YneJ-FLAG3 strain transformed with pCA24N His6-AcrR, 1 mM IPTG; RM and M9-tryptone conditions; MACS microbead immunoprecipitation, blot with His6-tag antibody

Binder	binding [1]	binding [2]
AcrR, bacterial two-hybrid fusion (protein, UniProt P0ACS9 1-215) MARKTKQEAQETRQHILDVALRLFSQQGVSSTSLGEIAKAAGVTRGAIYWHFKDKSDLFSEIWELSESNIGELELEYQAKFPGDPLSVLREILIHVLESTVTEERRRLLMEIIFHKCEFVGEMAVVQQAQRNLCLESYDRIEQTLKHCIEAKMLPADLMTRRAAIIMRGYISGLMENWLFAPQSFDLKKEARDYVAILLEMYLLCPTLRNPATNE	binds	–
His6-tagged AcrR (protein, UniProt P0ACS9 1-215) MARKTKQEAQETRQHILDVALRLFSQQGVSSTSLGEIAKAAGVTRGAIYWHFKDKSDLFSEIWELSESNIGELELEYQAKFPGDPLSVLREILIHVLESTVTEERRRLLMEIIFHKCEFVGEMAVVQQAQRNLCLESYDRIEQTLKHCIEAKMLPADLMTRRAAIIMRGYISGLMENWLFAPQSFDLKKEARDYVAILLEMYLLCPTLRNPATNE	–	binds
